PubChem BioAssay AID504764 | Drosophila RNAi Screening Center, 2011

- Screen: 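Genome-wide screen for regulators of Notch-driven gene expression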 (primary screen)
- Cell system: Drosophila Kc167 cells
- Knock-down reagent: long dsRNA against Drosophila genes
- Timing: about 5 days (4 days dsRNA, then 24 h after transfection)
- Conditions: transfection of constitutively active membrane-tethered Notch lacking the extracellular domain, read 24 h later
- Read-out: 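Light from a Notch-responsive E(spl)m3 luciferase reporter under active Notch, with control-promoter and no-Notch reporter wells to normalise; raw counts from paired wells a and b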
- Reading the numbers: induced reporter light, run 1, well a and induced reporter light, run 1, well b: higher = more light from the Notch target reporter with active Notch; control promoter light, run 1, well a and control promoter light, run 1, well b: higher = more light from the viral control promoter (cell number, transfection, viability); uninduced reporter light, run 1, well a: higher = more light from the Notch target reporter without active Notch
- Call rule: 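Wells with low control signal or poorly matching duplicates excluded; duplicates averaged; per source plate, z beyond ±2 for induced/control log2 ratio or beyond ±1.8 for induced/uninduced marks a hit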
- Calls: active = modifier hit (raised or lowered Notch signal); inactive = not a hit
The deposit covers about 22,000 reagents; shown is an unselected part of those with a known target gene and a result. Over the whole deposit, 403 (1.9%) got an active call. 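Unnormalised raw counts per well; ratio z-scores behind the hit calls and whether each hit raises or lowers signal are not deposited.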 The numbers tell different reagents against one gene apart. The record does not give: the amount of reagent.

no.	target gene	dsRNA no.	induced reporter light, run 1, well a	induced reporter light, run 1, well b	control promoter light, run 1, well a	control promoter light, run 1, well b	uninduced reporter light, run 1, well a	outcome
1	CG17359	1	2.08e5	1.87e5	2.64e5	2.21e5	7065	inactive
2	qkr58E-3	1	1.84e5	2.29e5	1.69e5	1.94e5	16245	inactive
3	E(spl)mgamma-HLH	1	1.87e5	1.65e5	2.16e5	2.04e5	15920	inactive
4	CG6125	1	2.78e5	2.89e5	2.63e5	3.16e5	21095	inactive
5	rdo	1	1.67e5	1.28e5	82595	95470	13470	inactive
6	Mgat1	1	2.45e5	1.42e5	2.85e5	2.36e5	10960	inactive
7	phr6-4	1	37225	39645	58590	40910	3540	inactive
8	fz2	1	2.50e5	2.69e5	2.95e5	3.32e5	18445	inactive
9	fz2	2	34150	34500	18700	18175	5350	inactive
10	fz2	3	89175	85240	89165	92085	5565	inactive
11	CG34382	1	1.41e5	1.57e5	2.12e5	2.24e5	12340	inactive
12	CG34382	2	2.34e5	1.77e5	3.38e5	2.37e5	9515	inactive
13	CG34382	3	1.80e5	1.10e5	1.87e5	1.86e5	9700	inactive
14	RIOK1	1	1.38e5	1.21e5	1.03e5	48120	11140	inactive
15	CG42715 (retired record)	1	77890	1.33e5	2.06e5	1.88e5	13525	inactive
16	AstA-R1	1	48865	72535	68110	76570	6500	inactive
17	AstA-R1	2	1.93e5	2.00e5	3.90e5	3.35e5	14580	inactive
18	kmg	1	1.49e5	1.39e5	1.27e5	1.28e5	11730	inactive
19	Cyp305a1	1	1.10e5	1.21e5	65545	82740	10995	inactive
20	CG8960	1	51440	47950	69870	68520	4020	inactive
